In the supplement of paper PMC8728848:
The list shows a part of the results.

Tests used:
Experiment in all cases: glycan array binding signal (z-score within array); higher = stronger binding
Details in all cases: glycan notation: IUPAC condensed, linker removed
[1] = target: Fuc(a1-2)Gal
How it was run: (§1)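 Glycan array data were curated from 3228 arrays in the Consortium for Functional Glycomics database and kept only where the protein sequence was available. Glycan names were converted to IUPAC-condensed notation, and columns mapping to the same glycan were averaged. The binding signal is a within-array Z-score, averaged across arrays of the same protein sequence at different concentrations or buffers and across linkers. Negative Z-scores can be read as non-binding.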

[2] = target: Fuc(a1-2)Gal(b1-3)GalNAc
How it was run: as §1

[3] = target: Fuc(a1-2)Gal(b1-3)GalNAc(a1-3)[Fuc(a1-2)]Gal(b1-4)Glc
How it was run: as §1

[4] = target: Fuc(a1-2)Gal(b1-3)GalNAc(a1-3)[Fuc(a1-2)]Gal(b1-4)GlcNAc
How it was run: as §1

[5] = target: Fuc(a1-2)Gal(b1-3)GalNAc(b1-3)Gal
How it was run: as §1

[6] = target: Fuc(a1-2)Gal(b1-3)GalNAc(b1-3)Gal(a1-4)Gal(b1-4)Glc
How it was run: as §1

[7] = target: Fuc(a1-2)Gal(b1-3)GalNAc(b1-4)[Neu5Ac(a2-3)]Gal(b1-4)Glc
How it was run: as §1

[8] = target: Fuc(a1-2)Gal(b1-3)GlcNAc
How it was run: as §1

[9] = target: Fuc(a1-2)Gal(b1-3)GlcNAc(b1-2)Man(a1-3)[Fuc(a1-2)Gal(b1-3)GlcNAc(b1-2)Man(a1-6)]Man(b1-4)GlcNAc(b1-4)GlcNAc
How it was run: as §1

[10] = target: Fuc(a1-2)Gal(b1-3)GlcNAc(b1-2)Man(a1-3)[Fuc(a1-2)Gal(b1-3)GlcNAc(b1-2)Man(a1-6)]Man(b1-4)GlcNAc(b1-4)[Fuc(a1-6)]GlcNAc
How it was run: as §1

[11] = target: Fuc(a1-2)Gal(b1-3)GlcNAc(b1-3)Gal(b1-4)Glc
How it was run: as §1

[12] = target: Fuc(a1-2)Gal(b1-3)GlcNAc(b1-3)GalNAc
How it was run: as §1

[13] = target: Fuc(a1-2)Gal(b1-3)GlcNAc(b1-3)[Fuc(a1-2)Gal(b1-3)GlcNAc(b1-6)]GalNAc
How it was run: as §1

[14] = target: Fuc(a1-2)Gal(b1-3)GlcNAc(b1-3)[Gal(b1-4)GlcNAc(b1-6)]Gal(b1-4)Glc
How it was run: as §1

[15] = target: Fuc(a1-2)Gal(b1-3)GlcNAc(b1-3)[Neu5Ac(a2-6)Gal(b1-4)GlcNAc(b1-6)]Gal(b1-4)Glc
How it was run: as §1

[16] = target: Fuc(a1-2)Gal(b1-3)GlcNAc6S
How it was run: as §1

[17] = target: Fuc(a1-2)Gal(b1-3)[Fuc(a1-4)]GlcNAc
How it was run: as §1

[18] = target: Fuc(a1-2)Gal(b1-3)[Fuc(a1-4)]GlcNAc(b1-2)Man(a1-3)[Fuc(a1-2)Gal(b1-3)[Fuc(a1-4)]GlcNAc(b1-2)Man(a1-3)]Man(b1-4)GlcNAc(b1-4)GlcNAc
How it was run: as §1

[19] = target: Fuc(a1-2)Gal(b1-3)[Fuc(a1-4)]GlcNAc(b1-2)Man(a1-3)[Fuc(a1-2)Gal(b1-3)[Fuc(a1-4)]GlcNAc(b1-2)Man(a1-6)]Man(b1-4)GlcNAc(b1-4)[Fuc(a1-6)]GlcNAc(b1-4)[Fuc(a1-6)]GlcNAc
How it was run: as §1

[20] = target: Fuc(a1-2)Gal(b1-3)[Fuc(a1-4)]GlcNAc(b1-3)[Fuc(a1-3)[Gal(b1-4)]GlcNAc(b1-6)]Gal(b1-4)Glc
How it was run: as §1

[21] = target: Fuc(a1-2)Gal(b1-3)[Fuc(a1-4)]GlcNAc(b1-3)[Gal(b1-4)GlcNAc(b1-6)]Gal(b1-4)Glc
How it was run: as §1

[22] = target: Fuc(a1-2)Gal(b1-4)Glc
How it was run: as §1

[23] = target: Fuc(a1-2)Gal(b1-4)Glc6S
How it was run: as §1

[24] = target: Fuc(a1-2)Gal(b1-4)GlcNAc
How it was run: as §1

[25] = target: Fuc(a1-2)Gal(b1-4)GlcNAc(b1-2)Man
How it was run: as §1

[26] = target: Fuc(a1-2)Gal(b1-4)GlcNAc(b1-2)Man(a1-3)[Fuc(a1-2)Gal(b1-4)GlcNAc(b1-2)Man(a1-6)]Man(b1-4)GlcNAc(b1-4)GlcNAc
How it was run: as §1

[27] = target: Fuc(a1-2)Gal(b1-4)GlcNAc(b1-2)Man(a1-3)[Fuc(a1-2)Gal(b1-4)GlcNAc(b1-2)Man(a1-6)]Man(b1-4)GlcNAc(b1-4)[Fuc(a1-6)]GlcNAc
How it was run: as §1

[28] = target: Fuc(a1-2)Gal(b1-4)GlcNAc(b1-2)[Fuc(a1-2)Gal(b1-4)GlcNAc(b1-4)]Man(a1-3)[Fuc(a1-2)Gal(b1-4)GlcNAc(b1-2)Man(a1-6)]Man(b1-4)GlcNAc(b1-4)GlcNAc
How it was run: as §1

[29] = target: Fuc(a1-2)Gal(b1-4)GlcNAc(b1-3)Gal(b1-4)GlcNAc
How it was run: as §1

[30] = target: Fuc(a1-2)Gal(b1-4)GlcNAc(b1-3)Gal(b1-4)GlcNAc(b1-2)Man(a1-3)[Fuc(a1-2)Gal(b1-4)GlcNAc(b1-3)Gal(b1-4)GlcNAc(b1-2)Man(a1-6)]Man(b1-4)GlcNAc(b1-4)GlcNAc
How it was run: as §1

B1: GS13599A-bth-520-23-520 (Bacteroides thetaiotaomicron) (protein)
chain: SEDTMDRINKDHDHTTSVASRFILADVITSTAFSNASGDINTYASSYIEYEVGVDNQLYYAEVRENEPSSSSTFNNSWNGIYSSLKNARIIIDQCGEGGRDHGNDVTRGMAEVMAAYNCALIADFFGDAPCSQAALVDEKGSPVYMTPKMDTQQEIYTQIISYLDDAIANLQKEDLADVTEQDFLYAGDADKWLKFAYGLKARYTMRLINRSSNKSADYEKVLDYVSKSFTSADDQAAFDIYDSNNINPFYGFYNSRAGFGASTSLGTKLLAYNDPRANRAFFTPIVDKKRSQVAANDPSLVPAPNGSPDQSTSKYGISAFVYAKTAPTLLMSYHELMFLKAEALCRLNRDAEDALKEAVVAGLLNAENSISIAIKELGSGLNTNSSEVITETSAGKYFDDVVKAKYAANPLQETMIQKYLAMWGASGEATETYNDFRRMKGLNENFITLTNPNNSSKFPLRYPYGNSDTAANPEVKAAYGNGDYVYSEPVWWAGGSR
For B1, the “glycan array binding signal (z-score)” value [1] was -0.72, the “glycan array binding signal (z-score)” value [2] was -0.786 and the “glycan array binding signal (z-score)” value [3] was -0.48. For the same binder, the “glycan array binding signal (z-score)” value [4] was -0.502, the “glycan array binding signal (z-score)” value [5] was 1.15 and the “glycan array binding signal (z-score)” value [6] was 1.19. The “glycan array binding signal (z-score)” value [7] was -0.05, the “glycan array binding signal (z-score)” value [8] was -0.474 and the “glycan array binding signal (z-score)” value [9] was -0.072. The “glycan array binding signal (z-score)” value [10] was 1.27, the “glycan array binding signal (z-score)” value [11] was 0.009 and the “glycan array binding signal (z-score)” value [12] was -0.401. The “glycan array binding signal (z-score)” value [13] was 0.527, the “glycan array binding signal (z-score)” value [14] was -0.682 and the “glycan array binding signal (z-score)” value [15] was -0.573. For the same binder, the “glycan array binding signal (z-score)” value [16] was -0.915, the “glycan array binding signal (z-score)” value [17] was 0.044 and the “glycan array binding signal (z-score)” value [18] was 1.38. For the same binder, the “glycan array binding signal (z-score)” value [19] was 0.741, the “glycan array binding signal (z-score)” value [20] was -0.103 and the “glycan array binding signal (z-score)” value [21] was -1.06. The “glycan array binding signal (z-score)” value [22] was -0.831, the “glycan array binding signal (z-score)” value [23] was -0.907 and the “glycan array binding signal (z-score)” value [24] was 0.113. The “glycan array binding signal (z-score)” value [25] was -0.841, the “glycan array binding signal (z-score)” value [26] was 0.686 and the “glycan array binding signal (z-score)” value [27] was -0.152. For the same binder, the “glycan array binding signal (z-score)” value [28] was 2.4, the “glycan array binding signal (z-score)” value [29] was -1.07 and the “glycan array binding signal (z-score)” value [30] was 0.322.
